Amino acid sequences for entries named in this document (tags omitted).
UniProt P09471, whole entry, looked up: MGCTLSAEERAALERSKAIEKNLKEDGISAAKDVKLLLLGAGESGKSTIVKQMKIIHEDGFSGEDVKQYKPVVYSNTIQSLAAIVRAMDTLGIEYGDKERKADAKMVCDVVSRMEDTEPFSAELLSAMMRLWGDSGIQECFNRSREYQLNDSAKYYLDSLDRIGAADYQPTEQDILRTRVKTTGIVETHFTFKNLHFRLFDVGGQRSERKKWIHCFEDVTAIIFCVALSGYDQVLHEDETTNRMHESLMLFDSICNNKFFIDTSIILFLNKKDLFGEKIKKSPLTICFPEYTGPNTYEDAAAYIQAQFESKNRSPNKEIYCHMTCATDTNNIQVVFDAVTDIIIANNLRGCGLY

Screen size: about 220,000 compounds; about 770 (0.35%) were called active. Inconclusive results, whose numbers are uncertain, are shown with a selection of clear calls. No stated cut-off is given here; in the data, active means binding response below about 49% or above about 150%; inconclusive means no clear call, values can overlap the other calls; inactive means in between.
Each compound was assayed against Guanine nucleotide-binding protein G(o) subunit alpha (Homo sapiens) (UniProt P09471) (assay: RGS7-Galphao binding modulators, primary screen, biochemical, multiplexed bead flow cytometry (AID 1439;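 further: fluorescent Galphao held in activated GDP-AlF4 state binding bead-coupled RGS7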)). Settings: at 10 µM, actives lie on both sides.
In the case of `CC1(c2nnc(-c3ccccc3)o2)CC(c2cccc(Cl)c2)=NO1` (stereo not drawn), the binding response (% of control) is reported as inconclusive: 86.8%. For `COc1ccccc1Nc1nnc(SCC(=O)NC(=O)Nc2ccc3c(c2)OCCO3)s1`, the binding response (% of control) was inactive: 97.6%. For `CCOC(=O)Cc1c(C)nc2c(-c3ccc(Cl)cc3)c(C)[nH]n2c1=O`, the binding response (% of control) was inactive: 87.1%. With `C(=C\c1ccco1)/c1ccc2ccccc2n1` the binding response (% of control) was inconclusive: 155%. `CC1(C(=O)OCC(=O)Nc2ccccc2)CC1(Cl)Cl` (stereo not drawn) was tested, and the binding response (% of control) was inconclusive: 115%. For `O=S(=O)(c1cccc(C(F)(F)F)c1)N(CCCN1CCOCC1)Cc1cccs1`, the binding response (% of control) was inconclusive: 88.8%. With `CN1C(=O)c2ccccc2NC(=O)[C@]12O[C@@H]2c1cccc(O)c1` the binding response (% of control) was inconclusive: 81.1%. `CCOC(=O)CN(C(=O)COc1nc(C)cc(C)c1C#N)c1ccc(F)cc1` was tested, and the binding response (% of control) was inconclusive: 2.95%. `O=C(NCCCN1CCOCC1)c1ccc([N+](=O)[O-])cc1[N+](=O)[O-]` was tested, and the binding response (% of control) was inactive: 101%. In the case of `CN(Cc1ccccc1)C(=O)COC(=O)c1ccc2ccccc2n1`, the binding response (% of control) is reported as inconclusive: 108%. With `CCCc1ccc(C(=O)[C@@H]2[C@@H](C(C)=O)N3c4ccc(F)cc4C=C[C@@H]3[C@@]23C(=O)Nc2ccccc23)cc1` the binding response (% of control) was inconclusive: 84.6%. For `CC(C)CCNC(=O)c1c(CSc2ccccc2)noc1C(=O)NCc1ccccc1`, the binding response (% of control) was inconclusive: 119%. For `Cc1cc(/C=N/NC(=O)c2ccc(O)cc2)c(C)n1CC(C)C`, the binding response (% of control) was inconclusive: 91.7%. With `NC(=O)N/N=C/c1sc(=O)n(-c2ccccc2)c1Cl` the binding response (% of control) was inconclusive: 78.1%. With `O=C(NNC1=Nc2ccccc2SC1)c1ccc(F)cc1` the binding response (% of control) was inconclusive: 87.2%. `COc1ccc(-c2nn(CCC#N)cc2C=C(C#N)C#N)cc1` was tested, and the binding response (% of control) was inconclusive: 83.8%. With `COc1ccccc1C1=NOC(Cn2c(NCCCO)nc3c2c(=O)n(C)c(=O)n3C)C1` (stereo not drawn) the binding response (% of control) was inconclusive: -58.4%. With `Cc1cc(N2CCCCC2)nc(N2CCOCC2)n1` the binding response (% of control) was inactive: 125%. With `O=[N+]([O-])c1ccc(S(=O)(=O)CC(CN2CCCCC2)N2CCCCC2)cc1` (stereo not drawn) the binding response (% of control) was inconclusive: 115%. In the case of `Cc1ccc(S(=O)(=O)N/N=C/c2cccc3nccnc23)cc1`, the binding response (% of control) is reported as inconclusive: 132%. With `COc1cc(/C=C2\C(=O)ON=C2c2ccccc2)cc(Cl)c1O` the binding response (% of control) was inconclusive: 100%. `NNC(=S)Nc1ccc(OC(F)(F)F)cc1` was tested, and the binding response (% of control) was inconclusive: 79.7%. For `CCn1c(SCC(=O)N2CCCCC2C)nnc1-c1ccc(S(=O)(=O)N2CCN(C)CC2)cc1` (stereo not drawn), the binding response (% of control) was inactive: 107%. With `CCC1CN(C)C2Cc3c([nH]c4ccccc34)C(=O)CC1C2C(=O)OC` (stereo not drawn) the binding response (% of control) was inconclusive: 88.9%. With `CCOC(=O)c1c(C)oc2ccc(NS(=O)(=O)c3cccs3)cc12` the binding response (% of control) was inactive: 99.5%. `S=c1[nH]nc(-c2cc(-c3ccccc3)n[nH]2)n1/N=C/c1cccs1` was tested, and the binding response (% of control) was inconclusive: 82.3%. In the case of `CC(C)Oc1ccc(CCC(=O)N/N=C/c2ccncc2)cc1`, the binding response (% of control) is reported as inconclusive: 96.7%. In the case of `Fc1ccc(NC(=S)Nc2cccnc2)c(Cl)c1`, the binding response (% of control) is reported as inconclusive: 158%. `O=C(Nc1ccc(Cl)cc1)Nc1ccccc1Sc1ncc([N+](=O)[O-])s1` was tested, and the binding response (% of control) was inconclusive: 114%. `O=C(CCCN1C(=O)/C(=C/c2ccccc2Cl)SC1=S)NNC(=O)c1ccc(Cl)cc1Cl` was tested, and the binding response (% of control) was inconclusive: 97.7%. For `Cc1ccccc1NC(=O)COc1ccc2c(c1)OC(C)(C)CC2=O`, the binding response (% of control) was inconclusive: 86%. In the case of `Cc1cccc(-n2ccnc2CN2CCN(C(C)C)C(CCO)C2)c1` (stereo not drawn), the binding response (% of control) is reported as inconclusive: 210%. With `O=C1CCCCC1Sc1nnc(-c2ccc3c(c2)OCO3)o1` (stereo not drawn) the binding response (% of control) was inconclusive: 115%. `c1ccc(-c2ccc3c(c2)NC(C2Nc4cc(-c5ccccc5)ccc4O2)O3)cc1` (stereo not drawn) was tested, and the binding response (% of control) was inconclusive: 7.93%. With `NC(=O)N/N=C\c1cccs1` the binding response (% of control) was inconclusive: 99.9%. In the case of `C=CCSc1cc(C)nc2c(-c3ccccc3)c(C)nn12`, the binding response (% of control) is reported as inconclusive: 88.7%. `Clc1ccc(/C=N/N2CCCCC2)cc1` was tested, and the binding response (% of control) was inconclusive: 230%. `Cc1csc(SCC(=O)NC(=O)C2CCCCC2)n1` was tested, and the binding response (% of control) was inconclusive: 120%. For `COc1cccc(OC)c1CC1SC(=O)NC1=O` (stereo not drawn), the binding response (% of control) was inconclusive: 132%. For `c1ccc(-c2cccs2)nc1`, the binding response (% of control) was inconclusive: 11.6%. For `CCN(CC)CCn1c(=O)n(-c2ccc(Cl)cc2)c(=O)c2c3c(sc21)CN(C)CC3`, the binding response (% of control) was inconclusive: 110%. In the case of `CCn1ccnc1CN(C)Cc1nc(-c2ccc3c(c2)OCO3)no1`, the binding response (% of control) is reported as inactive: 96.5%. For `COc1cc(/C=C2/NC(=O)N(CC(=O)Nc3ccc(C)cc3)C2=O)ccc1Oc1ccc([N+](=O)[O-])cn1`, the binding response (% of control) was inconclusive: 79.8%. `CNC(=O)CC12CC3CC(CC(C3)C1)C2` was tested, and the binding response (% of control) was inactive: 100%. `O=C(O)CC/C(=N\Nc1ccc(S(=O)(=O)N2CCOCC2)cc1[N+](=O)[O-])c1cccs1` was tested, and the binding response (% of control) was inconclusive: 140%. With `Cn1cccc1C(C#N)c1ncc(C(F)(F)F)cc1Cl` (stereo not drawn) the binding response (% of control) was inconclusive: 98.4%. For `CCOC(=O)Cn1c(=N)n(CCOc2ccc(Br)cc2)c2ccccc21`, the binding response (% of control) was inconclusive: 49.7%. `CC(=O)NCCc1ccc(O)cc1` was tested, and the binding response (% of control) was inconclusive: 109%. `O=C(CCc1n[nH]c(=O)[nH]c1=O)N/N=C/c1ccco1` was tested, and the binding response (% of control) was inactive: 103%. With `O=C(Nc1ccccc1)c1nn(-c2cccc(C(F)(F)F)c2)ccc1=O` the binding response (% of control) was inconclusive: 132%. For `Cc1c(CCC(=O)O)c(=O)oc2cc3occ(-c4ccccc4)c3cc12`, the binding response (% of control) was inconclusive: 145%. `O=C(CC1C(=O)NCCN1C(=O)Nc1ccc(F)cc1F)Nc1cc(Cl)ccc1Cl` (stereo not drawn) was tested, and the binding response (% of control) was inconclusive: 130%. In the case of `CCN(CC)S(=O)(=O)c1ccc(NC(=O)c2ccc(Cl)nc2)cc1`, the binding response (% of control) is reported as inconclusive: 82.4%. In the case of `Nc1cc(N)nc(SCC(=O)N2CCN(S(=O)(=O)c3ccccc3)CC2)n1`, the binding response (% of control) is reported as inconclusive: 115%. For `CN(O)/C=C/C(=O)c1ccc(Br)cc1`, the binding response (% of control) was inconclusive: 94.5%. With `COc1ccc(Oc2cnn(-c3ccccc3)c(=O)c2Br)cc1` the binding response (% of control) was inconclusive: 90.4%. In the case of `Cc1ccc(N2CC(C(=O)OCC(=O)Nc3ccccc3F)CC2=O)cc1` (stereo not drawn), the binding response (% of control) is reported as inconclusive: 103%. With `CCCCC(=O)Nc1cccc(NC(=O)c2cccnc2Cl)c1` the binding response (% of control) was inconclusive: 112%.

From PubChem BioAssay AID1439 (NMMLSC, 2008)
